Results are given in words; binding and its absence hold for the method and conditions named. Some entries that bind do so weakly or less than the wild type.

The values that follow come from PMC3960060.

The target in this experiment is T1, recombinant biotinylated HEG1 cytoplasmic tail protein (UniProt Q9ULI3).
T1 sequence (chain, biotin): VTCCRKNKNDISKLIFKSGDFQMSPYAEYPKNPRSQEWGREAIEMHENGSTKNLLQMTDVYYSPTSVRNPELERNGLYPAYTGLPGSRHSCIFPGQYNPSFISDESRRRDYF
The experiment is described as follows: ELISA; capture ELISA: plates coated with 10 ug/mL neutravidin, blocked with 1% BSA, loaded with 2 ug/mL biotinylated HEG1 tail protein; incubated with HEK293A lysates adjusted to equal FLAG-CCM1 levels; washed with 0.2% Triton X-100 in PBS; detected with anti-FLAG M2 and HRP-conjugated anti-mouse IgG, chemiluminescence; only the target purified. In general terms: In an ELISA, binding on a coated surface is turned into a signal by an enzyme label.

Regarding “human full-length FLAG-tagged CCM1 (from UniProt O00522-1 1-736)”, the binding entry is reported as “binds”.
